In the supplement of paper PMC10849652:
This is one part of the list.

Sequences of proteins named here, by UniProt entry; tags and fusion partners are left off. A change or cut given only in a name is not applied to a line headed by its entry.
UniProt Q9BWF3: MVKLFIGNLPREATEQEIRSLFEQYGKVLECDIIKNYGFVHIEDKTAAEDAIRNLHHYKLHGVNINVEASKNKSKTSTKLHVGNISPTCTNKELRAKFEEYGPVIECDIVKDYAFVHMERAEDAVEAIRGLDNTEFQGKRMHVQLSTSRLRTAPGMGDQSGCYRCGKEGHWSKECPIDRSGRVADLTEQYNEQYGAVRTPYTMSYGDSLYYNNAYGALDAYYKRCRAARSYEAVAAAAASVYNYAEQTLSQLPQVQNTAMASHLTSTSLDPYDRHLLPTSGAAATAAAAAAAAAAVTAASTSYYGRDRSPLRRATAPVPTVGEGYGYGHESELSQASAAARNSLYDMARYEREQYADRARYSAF
UniProt Q96D15: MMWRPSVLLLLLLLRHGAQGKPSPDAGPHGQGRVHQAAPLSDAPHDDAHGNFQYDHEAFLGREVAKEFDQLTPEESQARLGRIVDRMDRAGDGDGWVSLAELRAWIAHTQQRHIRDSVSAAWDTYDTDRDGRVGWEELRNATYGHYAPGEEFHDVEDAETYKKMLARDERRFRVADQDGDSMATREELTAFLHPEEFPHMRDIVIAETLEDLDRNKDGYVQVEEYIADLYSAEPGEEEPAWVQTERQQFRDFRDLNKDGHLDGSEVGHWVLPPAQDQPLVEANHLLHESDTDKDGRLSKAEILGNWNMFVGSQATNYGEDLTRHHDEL
UniProt Q5TBB1: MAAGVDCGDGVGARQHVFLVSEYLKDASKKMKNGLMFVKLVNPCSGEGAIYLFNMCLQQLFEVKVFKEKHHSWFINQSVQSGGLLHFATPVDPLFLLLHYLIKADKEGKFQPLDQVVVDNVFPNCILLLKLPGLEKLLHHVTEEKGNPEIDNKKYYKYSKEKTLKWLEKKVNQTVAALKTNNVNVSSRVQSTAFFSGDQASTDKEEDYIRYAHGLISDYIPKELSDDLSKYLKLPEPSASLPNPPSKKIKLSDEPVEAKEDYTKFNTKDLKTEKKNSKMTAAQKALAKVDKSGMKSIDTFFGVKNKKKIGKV
UniProt Q02094: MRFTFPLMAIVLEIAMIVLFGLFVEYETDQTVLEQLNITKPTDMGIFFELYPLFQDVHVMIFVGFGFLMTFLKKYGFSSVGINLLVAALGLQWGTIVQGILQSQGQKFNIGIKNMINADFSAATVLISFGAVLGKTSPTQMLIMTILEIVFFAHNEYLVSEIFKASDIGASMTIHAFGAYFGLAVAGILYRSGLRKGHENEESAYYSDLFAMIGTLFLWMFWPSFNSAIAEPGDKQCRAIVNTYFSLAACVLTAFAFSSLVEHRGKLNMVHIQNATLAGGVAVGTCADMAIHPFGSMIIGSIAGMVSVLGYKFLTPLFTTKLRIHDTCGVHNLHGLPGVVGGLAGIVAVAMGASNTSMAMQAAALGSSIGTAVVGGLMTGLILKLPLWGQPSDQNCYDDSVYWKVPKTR
UniProt Q9UKL0, whole entry, looked up: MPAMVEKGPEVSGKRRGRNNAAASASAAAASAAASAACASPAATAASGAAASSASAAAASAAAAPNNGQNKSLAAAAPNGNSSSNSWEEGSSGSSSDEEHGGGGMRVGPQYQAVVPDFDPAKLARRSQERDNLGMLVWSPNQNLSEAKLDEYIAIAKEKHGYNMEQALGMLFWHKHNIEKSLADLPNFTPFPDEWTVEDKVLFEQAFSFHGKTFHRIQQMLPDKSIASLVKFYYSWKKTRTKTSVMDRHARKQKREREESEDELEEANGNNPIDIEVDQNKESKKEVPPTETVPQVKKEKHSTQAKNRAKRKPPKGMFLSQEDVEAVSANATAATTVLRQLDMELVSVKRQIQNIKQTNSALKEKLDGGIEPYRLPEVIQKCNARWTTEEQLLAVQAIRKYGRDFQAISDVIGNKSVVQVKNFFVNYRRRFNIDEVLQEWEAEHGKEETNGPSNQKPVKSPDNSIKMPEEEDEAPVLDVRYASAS
UniProt O15541: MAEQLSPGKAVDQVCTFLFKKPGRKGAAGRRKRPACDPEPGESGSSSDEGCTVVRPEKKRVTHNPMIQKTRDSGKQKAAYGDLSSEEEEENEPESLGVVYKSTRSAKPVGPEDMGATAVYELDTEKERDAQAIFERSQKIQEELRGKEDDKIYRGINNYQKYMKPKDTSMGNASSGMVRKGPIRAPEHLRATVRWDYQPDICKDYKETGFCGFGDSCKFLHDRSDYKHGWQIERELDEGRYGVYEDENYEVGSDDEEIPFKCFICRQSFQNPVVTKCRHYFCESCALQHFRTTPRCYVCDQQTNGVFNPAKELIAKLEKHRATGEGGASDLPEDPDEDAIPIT
UniProt Q06587: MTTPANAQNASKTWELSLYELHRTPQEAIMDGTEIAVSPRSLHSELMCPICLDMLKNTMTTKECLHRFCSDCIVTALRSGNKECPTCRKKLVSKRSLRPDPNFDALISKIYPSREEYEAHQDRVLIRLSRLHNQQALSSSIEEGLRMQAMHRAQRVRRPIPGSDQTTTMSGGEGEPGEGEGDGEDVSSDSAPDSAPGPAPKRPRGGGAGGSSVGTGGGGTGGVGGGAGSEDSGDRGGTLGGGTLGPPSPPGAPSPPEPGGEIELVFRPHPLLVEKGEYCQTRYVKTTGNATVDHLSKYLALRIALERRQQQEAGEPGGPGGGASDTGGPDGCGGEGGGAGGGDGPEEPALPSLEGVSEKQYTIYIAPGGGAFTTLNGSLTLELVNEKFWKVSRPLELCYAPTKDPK
UniProt Q9Y256: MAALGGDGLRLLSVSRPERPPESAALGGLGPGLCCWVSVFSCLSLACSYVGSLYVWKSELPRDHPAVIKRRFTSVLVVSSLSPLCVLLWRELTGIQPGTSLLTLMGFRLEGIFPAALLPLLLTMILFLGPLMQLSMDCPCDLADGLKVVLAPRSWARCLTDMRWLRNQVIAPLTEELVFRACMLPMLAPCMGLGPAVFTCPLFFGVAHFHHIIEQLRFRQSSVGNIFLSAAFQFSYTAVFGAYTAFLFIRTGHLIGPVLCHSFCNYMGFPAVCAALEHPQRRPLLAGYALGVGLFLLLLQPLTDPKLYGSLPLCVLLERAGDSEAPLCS
UniProt P35249, whole entry, looked up: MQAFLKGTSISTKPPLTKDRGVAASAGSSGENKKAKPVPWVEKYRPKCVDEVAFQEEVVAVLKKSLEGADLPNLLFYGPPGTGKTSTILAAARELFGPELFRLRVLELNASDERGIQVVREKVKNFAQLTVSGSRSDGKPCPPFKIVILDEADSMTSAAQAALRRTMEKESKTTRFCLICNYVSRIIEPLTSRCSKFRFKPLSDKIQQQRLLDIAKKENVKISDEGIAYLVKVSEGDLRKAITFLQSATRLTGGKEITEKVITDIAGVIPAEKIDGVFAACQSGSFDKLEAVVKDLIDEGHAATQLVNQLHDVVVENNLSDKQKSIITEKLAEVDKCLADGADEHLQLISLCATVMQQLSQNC
UniProt P61586, whole entry, looked up: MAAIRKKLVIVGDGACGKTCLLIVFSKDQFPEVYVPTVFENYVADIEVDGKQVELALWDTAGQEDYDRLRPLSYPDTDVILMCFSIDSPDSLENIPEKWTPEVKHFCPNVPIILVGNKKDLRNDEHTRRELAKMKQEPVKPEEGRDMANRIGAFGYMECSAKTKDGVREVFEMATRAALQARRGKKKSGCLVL
UniProt O43353, whole entry, looked up: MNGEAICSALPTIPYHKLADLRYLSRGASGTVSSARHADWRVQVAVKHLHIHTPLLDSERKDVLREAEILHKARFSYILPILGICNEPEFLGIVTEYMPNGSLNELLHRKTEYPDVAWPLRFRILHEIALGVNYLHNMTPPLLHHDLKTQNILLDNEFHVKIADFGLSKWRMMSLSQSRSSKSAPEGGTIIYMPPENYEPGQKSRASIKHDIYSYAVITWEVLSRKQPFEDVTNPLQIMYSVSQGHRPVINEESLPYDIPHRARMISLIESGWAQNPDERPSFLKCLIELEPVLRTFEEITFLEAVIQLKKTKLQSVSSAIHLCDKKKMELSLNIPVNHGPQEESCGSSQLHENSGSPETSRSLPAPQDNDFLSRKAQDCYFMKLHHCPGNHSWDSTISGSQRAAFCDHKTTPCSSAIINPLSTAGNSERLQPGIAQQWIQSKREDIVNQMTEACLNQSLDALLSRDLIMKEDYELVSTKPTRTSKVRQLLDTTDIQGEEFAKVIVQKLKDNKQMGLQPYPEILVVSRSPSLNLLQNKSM
UniProt O00584, whole entry, looked up: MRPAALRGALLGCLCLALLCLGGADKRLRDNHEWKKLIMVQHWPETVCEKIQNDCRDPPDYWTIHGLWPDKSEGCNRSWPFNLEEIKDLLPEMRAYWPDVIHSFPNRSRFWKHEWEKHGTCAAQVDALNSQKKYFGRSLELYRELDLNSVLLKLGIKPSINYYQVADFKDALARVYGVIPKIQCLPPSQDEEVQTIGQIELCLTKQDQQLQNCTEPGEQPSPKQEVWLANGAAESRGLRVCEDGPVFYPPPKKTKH
UniProt Q96PM5: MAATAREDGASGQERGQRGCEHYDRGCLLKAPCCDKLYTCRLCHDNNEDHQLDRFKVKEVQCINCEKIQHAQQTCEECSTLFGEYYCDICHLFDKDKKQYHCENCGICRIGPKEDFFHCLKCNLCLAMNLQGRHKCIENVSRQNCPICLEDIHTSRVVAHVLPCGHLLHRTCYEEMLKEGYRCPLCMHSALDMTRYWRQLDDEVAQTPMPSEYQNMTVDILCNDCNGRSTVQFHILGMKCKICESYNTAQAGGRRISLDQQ
UniProt Q9NPQ8: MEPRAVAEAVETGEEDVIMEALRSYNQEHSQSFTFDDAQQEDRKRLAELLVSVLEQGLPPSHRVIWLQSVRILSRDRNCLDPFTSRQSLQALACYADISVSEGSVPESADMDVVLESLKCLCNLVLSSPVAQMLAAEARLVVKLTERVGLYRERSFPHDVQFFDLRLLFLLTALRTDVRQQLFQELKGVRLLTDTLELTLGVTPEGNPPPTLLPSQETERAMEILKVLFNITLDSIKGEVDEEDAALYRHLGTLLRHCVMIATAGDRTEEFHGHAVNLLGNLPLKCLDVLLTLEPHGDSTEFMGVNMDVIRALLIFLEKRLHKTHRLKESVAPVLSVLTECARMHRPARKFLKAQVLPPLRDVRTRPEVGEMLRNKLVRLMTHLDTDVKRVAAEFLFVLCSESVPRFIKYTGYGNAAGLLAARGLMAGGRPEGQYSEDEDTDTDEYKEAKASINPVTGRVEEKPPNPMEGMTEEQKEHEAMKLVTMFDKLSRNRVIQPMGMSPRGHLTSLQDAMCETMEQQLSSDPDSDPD
UniProt P52758: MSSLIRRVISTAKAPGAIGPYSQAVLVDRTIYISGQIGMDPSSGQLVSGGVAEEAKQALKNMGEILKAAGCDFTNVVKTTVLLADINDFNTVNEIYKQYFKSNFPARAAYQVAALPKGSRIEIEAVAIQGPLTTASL
UniProt Q15293: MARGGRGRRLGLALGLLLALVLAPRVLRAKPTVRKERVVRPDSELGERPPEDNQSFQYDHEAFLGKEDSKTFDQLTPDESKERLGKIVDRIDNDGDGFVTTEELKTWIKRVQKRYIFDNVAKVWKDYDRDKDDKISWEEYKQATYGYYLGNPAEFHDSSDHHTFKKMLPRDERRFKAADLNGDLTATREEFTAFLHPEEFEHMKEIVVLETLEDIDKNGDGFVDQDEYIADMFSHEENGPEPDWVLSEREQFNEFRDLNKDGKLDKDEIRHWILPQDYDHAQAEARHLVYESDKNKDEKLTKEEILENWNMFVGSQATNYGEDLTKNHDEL
UniProt Q9H0Z9: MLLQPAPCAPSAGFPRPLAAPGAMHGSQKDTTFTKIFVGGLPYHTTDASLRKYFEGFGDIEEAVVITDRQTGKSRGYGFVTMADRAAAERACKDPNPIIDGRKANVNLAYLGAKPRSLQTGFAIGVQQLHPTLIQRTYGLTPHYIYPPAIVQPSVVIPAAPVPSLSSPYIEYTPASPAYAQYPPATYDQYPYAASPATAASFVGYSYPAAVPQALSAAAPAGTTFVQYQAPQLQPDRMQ
UniProt Q8IXI2: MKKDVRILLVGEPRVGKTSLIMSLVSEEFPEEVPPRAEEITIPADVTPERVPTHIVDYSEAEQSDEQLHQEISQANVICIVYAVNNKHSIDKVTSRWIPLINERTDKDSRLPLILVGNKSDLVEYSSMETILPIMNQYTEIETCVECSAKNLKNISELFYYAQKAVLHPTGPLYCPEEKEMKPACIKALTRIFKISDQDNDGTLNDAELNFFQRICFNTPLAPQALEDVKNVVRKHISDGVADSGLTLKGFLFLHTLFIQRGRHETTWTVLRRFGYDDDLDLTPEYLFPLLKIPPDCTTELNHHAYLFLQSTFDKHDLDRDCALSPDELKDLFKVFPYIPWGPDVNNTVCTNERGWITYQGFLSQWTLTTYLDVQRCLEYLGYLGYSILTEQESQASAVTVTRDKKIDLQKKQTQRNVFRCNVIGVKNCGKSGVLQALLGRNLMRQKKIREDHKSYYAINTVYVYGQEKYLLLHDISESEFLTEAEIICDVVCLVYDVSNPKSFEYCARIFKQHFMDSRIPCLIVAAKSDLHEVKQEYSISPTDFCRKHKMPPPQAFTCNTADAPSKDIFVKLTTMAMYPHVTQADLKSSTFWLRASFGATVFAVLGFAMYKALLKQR

Columns and labels:
Assay in all cases: log2 fold change, soluble protein after heating vs DMSO (PISA); higher = thermal stabilisation; K562 cells, 10 uM, 30 min; active = over 0.2 and 3.5 SD of the protein, either way, in both replicates (recomputed)
[1] = compound: NC(=O)Nc1cc(-c2cccc(F)c2)sc1C(=O)N[C@H]1CCCNC1
Summary of the method: (§1)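 K562 cells at 2×10^6 cells/mL were exposed to 10 μM compound for 30 min, then aliquots were heated for 3 min across 48°C-58°C, pooled, and extracted in PBS containing 0.5% NP-40 at 4°C. The supernatant after 21,000xg for 90 min was taken as soluble protein and measured by TMTpro 16plex LC-MS/MS with channel sums equalised. Thermal stability is reported relative to control samples, with values from duplicates. Fold changes are given on a log2 scale.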

[2] = compound: NC(=O)c1cnc(N[C@@H]2CCCC[C@@H]2N)nc1Nc1cccc(-n2nccn2)c1
Summary of the method: as §1

[3] = compound: NC1(c2ccc(-c3nc4ccn5c(=O)[nH]nc5c4cc3-c3ccccc3)cc2)CCC1
Summary of the method: as §1

[4] = compound: NCC(=O)Nc1ccc(-n2nc(C(F)(F)F)cc2-c2ccc3c(ccc4ccccc43)c2)cc1
Summary of the method: as §1

[5] = compound: Nc1ccccc1NC(=O)c1ccc(CNC(=O)OCc2cccnc2)cc1 [entinostat]
Summary of the method: as §1

[6] = compound: O=C(CCCCCCC(=O)Nc1ccccc1)NO [vorinostat]
Summary of the method: as §1

[7] = compound: O=C(CCCCCCNC(=O)c1cnc(N(c2ccccc2)c2ccccc2Cl)nc1)NO [citarinostat]
Summary of the method: as §1

[8] = compound: O=C(O)c1ccc2c(c1)nc(Nc1cccc(Cl)c1)c1ccncc12 [silmitasertib]
Summary of the method: as §1

[9] = compound: O=C1NC(=O)C(c2cnc3ccccn23)=C1c1cn2c3c(cc(F)cc13)CN(C(=O)N1CCCCC1)CC2
Summary of the method: as §1

[10] = compound: c1cc(OCCN2CCCCC2)cc(-c2n[nH]c3ccc(-c4nnc[nH]4)cc23)c1
Summary of the method: as §1

Row | Target | log2 fold change [1] | log2 fold change [2] | log2 fold change [3] | log2 fold change [4] | log2 fold change [5] | log2 fold change [6] | log2 fold change [7] | log2 fold change [8] | log2 fold change [9] | log2 fold change [10]
1 | RBM4 (UniProt Q9BWF3) | inactive: 0.015 | inactive: -0.031 | inactive: -0.017 | inactive: -0.033 | inactive: 0.023 | inactive: 0.06 | inactive: -0.015 | inactive: 0.095 | inactive: -0.002 | inactive: -0.092
2 | RCN3 (UniProt Q96D15) | inactive: -0.042 | inactive: -0.027 | inactive: 0.105 | inactive: -0.013 | inactive: -0.027 | inactive: -0.122 | inactive: -0.063 | inactive: -0.002 | inactive: -0.039 | inactive: 0.12
3 | RNASEH2B (UniProt Q5TBB1) | inactive: 0 | inactive: -0.047 | inactive: -0.254 | inactive: -0.144 | inactive: 0.087 | inactive: 0.116 | inactive: 0.184 | inactive: -0.083 | inactive: -0.267 | inactive: 0.037
4 | RHAG (UniProt Q02094) | inactive: -0.035 | inactive: -0.087 | inactive: -0.091 | inactive: -0.022 | inactive: 0.072 | inactive: 0.087 | inactive: 0.126 | inactive: 0.135 | inactive: 0.093 | inactive: -0.231
5 | RCOR1 (UniProt Q9UKL0) | inactive: 0.035 | inactive: -0.104 | inactive: -0.03 | inactive: -0.133 | inactive: 0.189 | inactive: 0.082 | inactive: 0.007 | inactive: 0.016 | inactive: -0.043 | inactive: -0.103
6 | RNF126 (UniProt Q9BV68) | inactive: -0.099 | inactive: 0.044 | inactive: -0.026 | inactive: 0.027 | inactive: 0.002 | inactive: -0.004 | inactive: 0.07 | inactive: 0.029 | inactive: -0.046 | inactive: -0.018
7 | RNF113A (UniProt O15541) | inactive: 0.014 | inactive: 0.046 | inactive: 0.032 | inactive: 0.017 | inactive: -0.007 | inactive: -0.038 | inactive: 0.001 | inactive: 0.035 | inactive: -0.08 | inactive: 0.023
8 | RFT1 (UniProt Q96AA3) | inactive: -0.056 | inactive: 0.001 | inactive: 0.06 | inactive: -0.007 | inactive: -0.004 | inactive: -0.036 | inactive: 0.026 | inactive: 0.016 | inactive: 0.058 | inactive: -0.084
9 | RNASEH2C (UniProt Q8TDP1) | inactive: 0.07 | inactive: -0.064 | inactive: -0.169 | inactive: -0.011 | inactive: 0.013 | inactive: 0.11 | inactive: 0.115 | inactive: -0.002 | inactive: -0.092 | inactive: -0.039
10 | RING1 (UniProt Q06587) | inactive: 0.001 | inactive: -0.247 | inactive: -0.125 | inactive: -0.037 | inactive: -0.009 | inactive: 0.067 | inactive: 0.115 | inactive: 0.021 | inactive: 0.027 | inactive: -0.039
11 | RCE1 (UniProt Q9Y256) | inactive: -0.002 | inactive: -0.039 | inactive: -0.02 | inactive: 0.108 | inactive: -0.075 | inactive: 0.207 | inactive: -0.029 | inactive: 0.159 | inactive: 0.498 | inactive: 0.019
12 | RCL1 (UniProt Q9Y2P8) | inactive: 0.087 | inactive: 0.058 | inactive: 0.221 | inactive: 0.062 | inactive: -0.021 | inactive: 0.066 | inactive: -0.081 | inactive: 0.147 | inactive: 0.157 | inactive: -0.253
13 | RFC4 (UniProt P35249) | inactive: 0.04 | inactive: 0.075 | inactive: -0.071 | inactive: -0.025 | inactive: 0.019 | inactive: 0.08 | inactive: 0.025 | inactive: -0.044 | inactive: -0.025 | inactive: -0.014
14 | RHOA (UniProt P61586) | inactive: -0.01 | inactive: 0.036 | inactive: 0.204 | inactive: 0.123 | inactive: -0.019 | inactive: -0.16 | inactive: -0.047 | inactive: -0.136 | inactive: -0.057 | inactive: 0.104
15 | RIPK2 (UniProt O43353) | inactive: -0.113 | inactive: 0.017 | inactive: -0.027 | inactive: 0.007 | inactive: 0 | inactive: 0.065 | inactive: 0.032 | inactive: 0.032 | inactive: -0.027 | inactive: -0.029
16 | RMC1 (UniProt Q96DM3) | inactive: -0.026 | inactive: -0.141 | active: -0.384 | inactive: -0.039 | inactive: 0.048 | inactive: 0.017 | inactive: 0.04 | inactive: 0.025 | inactive: -0.036 | inactive: -0.045
17 | RCCD1 (UniProt A6NED2) | inactive: -0.096 | inactive: 0.022 | inactive: 0.004 | inactive: 0.055 | inactive: 0.022 | inactive: 0.018 | inactive: 0.059 | inactive: -0.072 | inactive: -0.029 | inactive: -0.04
18 | RNASET2 (UniProt O00584) | inactive: -0.082 | inactive: -0.114 | active: -0.285 | inactive: -0.033 | inactive: -0.012 | inactive: -0.04 | inactive: 0.074 | inactive: -0.018 | inactive: -0.048 | inactive: -0.102
19 | RCHY1 (UniProt Q96PM5) | inactive: -0.007 | inactive: -0.004 | inactive: 0.063 | inactive: 0 | inactive: -0.043 | inactive: -0.168 | inactive: 0.004 | inactive: 0.004 | inactive: -0.21 | inactive: 0.088
20 | RIC8A isoform 3 (UniProt Q9NPQ8) | inactive: -0.035 | inactive: -0.154 | inactive: -0.126 | inactive: -0.088 | inactive: 0.192 | inactive: 0.058 | inactive: 0.12 | inactive: -0.005 | inactive: 0.084 | inactive: -0.096
21 | RIDA (UniProt P52758) | inactive: -0.026 | inactive: 0.005 | inactive: 0.03 | inactive: 0.184 | inactive: -0.003 | inactive: -0.038 | inactive: 0.034 | inactive: 0.023 | inactive: -0.094 | inactive: 0.025
22 | RDX (UniProt P35241) | inactive: -0.011 | inactive: -0.002 | inactive: 0.031 | inactive: 0.03 | inactive: -0.037 | inactive: -0.047 | inactive: -0.003 | inactive: -0.019 | inactive: 0.103 | inactive: -0.027
23 | RNF214 (UniProt Q8ND24) | inactive: -0.056 | inactive: 0 | inactive: 0.05 | inactive: -0.065 | inactive: 0.038 | inactive: 0.086 | inactive: 0.022 | inactive: 0.086 | inactive: 0.047 | inactive: -0.144
24 | RCN1 (UniProt Q15293) | inactive: -0.012 | inactive: 0.012 | inactive: -0.045 | inactive: 0.025 | inactive: -0.008 | inactive: 0.062 | inactive: 0.017 | inactive: 0.031 | inactive: -0.019 | inactive: -0.03
25 | RBM38 (UniProt Q9H0Z9) | inactive: 0.02 | inactive: -0.13 | inactive: -0.021 | inactive: -0.108 | inactive: 0.066 | inactive: -0.061 | inactive: 0.06 | inactive: -0.029 | inactive: -0.072 | inactive: -0.021
26 | RHOT1 isoform 3 (UniProt Q8IXI2) | inactive: 0 | inactive: -0.027 | inactive: -0.139 | inactive: -0.039 | inactive: 0.02 | inactive: -0.025 | inactive: 0.062 | inactive: 0.023 | inactive: -0.027 | inactive: -0.043
27 | RNF121 (UniProt Q9H920) | inactive: 0.022 | inactive: -0.124 | inactive: 0.256 | inactive: -0.047 | inactive: 0.025 | inactive: -0.022 | inactive: -0.004 | inactive: 0.006 | inactive: -0.108 | inactive: -0.066

Reformatted in markdown: part of the list above

| Row | Target | log2 fold change [1] | log2 fold change [2] | log2 fold change [3] | log2 fold change [4] | log2 fold change [5] | log2 fold change [6] | log2 fold change [7] | log2 fold change [8] | log2 fold change [9] | log2 fold change [10] |
| --- | --- | --- | --- | --- | --- | --- | --- | --- | --- | --- | --- |
| 9 | RNASEH2C (UniProt Q8TDP1) | inactive: 0.07 | inactive: -0.064 | inactive: -0.169 | inactive: -0.011 | inactive: 0.013 | inactive: 0.11 | inactive: 0.115 | inactive: -0.002 | inactive: -0.092 | inactive: -0.039 |
| 13 | RFC4 (UniProt P35249) | inactive: 0.04 | inactive: 0.075 | inactive: -0.071 | inactive: -0.025 | inactive: 0.019 | inactive: 0.08 | inactive: 0.025 | inactive: -0.044 | inactive: -0.025 | inactive: -0.014 |
